Results on 1 substance are retold here after paper PMC6684655.

The chains behind the UniProt entries cited, without tags or fusion partners.
UniProt Q9WV30: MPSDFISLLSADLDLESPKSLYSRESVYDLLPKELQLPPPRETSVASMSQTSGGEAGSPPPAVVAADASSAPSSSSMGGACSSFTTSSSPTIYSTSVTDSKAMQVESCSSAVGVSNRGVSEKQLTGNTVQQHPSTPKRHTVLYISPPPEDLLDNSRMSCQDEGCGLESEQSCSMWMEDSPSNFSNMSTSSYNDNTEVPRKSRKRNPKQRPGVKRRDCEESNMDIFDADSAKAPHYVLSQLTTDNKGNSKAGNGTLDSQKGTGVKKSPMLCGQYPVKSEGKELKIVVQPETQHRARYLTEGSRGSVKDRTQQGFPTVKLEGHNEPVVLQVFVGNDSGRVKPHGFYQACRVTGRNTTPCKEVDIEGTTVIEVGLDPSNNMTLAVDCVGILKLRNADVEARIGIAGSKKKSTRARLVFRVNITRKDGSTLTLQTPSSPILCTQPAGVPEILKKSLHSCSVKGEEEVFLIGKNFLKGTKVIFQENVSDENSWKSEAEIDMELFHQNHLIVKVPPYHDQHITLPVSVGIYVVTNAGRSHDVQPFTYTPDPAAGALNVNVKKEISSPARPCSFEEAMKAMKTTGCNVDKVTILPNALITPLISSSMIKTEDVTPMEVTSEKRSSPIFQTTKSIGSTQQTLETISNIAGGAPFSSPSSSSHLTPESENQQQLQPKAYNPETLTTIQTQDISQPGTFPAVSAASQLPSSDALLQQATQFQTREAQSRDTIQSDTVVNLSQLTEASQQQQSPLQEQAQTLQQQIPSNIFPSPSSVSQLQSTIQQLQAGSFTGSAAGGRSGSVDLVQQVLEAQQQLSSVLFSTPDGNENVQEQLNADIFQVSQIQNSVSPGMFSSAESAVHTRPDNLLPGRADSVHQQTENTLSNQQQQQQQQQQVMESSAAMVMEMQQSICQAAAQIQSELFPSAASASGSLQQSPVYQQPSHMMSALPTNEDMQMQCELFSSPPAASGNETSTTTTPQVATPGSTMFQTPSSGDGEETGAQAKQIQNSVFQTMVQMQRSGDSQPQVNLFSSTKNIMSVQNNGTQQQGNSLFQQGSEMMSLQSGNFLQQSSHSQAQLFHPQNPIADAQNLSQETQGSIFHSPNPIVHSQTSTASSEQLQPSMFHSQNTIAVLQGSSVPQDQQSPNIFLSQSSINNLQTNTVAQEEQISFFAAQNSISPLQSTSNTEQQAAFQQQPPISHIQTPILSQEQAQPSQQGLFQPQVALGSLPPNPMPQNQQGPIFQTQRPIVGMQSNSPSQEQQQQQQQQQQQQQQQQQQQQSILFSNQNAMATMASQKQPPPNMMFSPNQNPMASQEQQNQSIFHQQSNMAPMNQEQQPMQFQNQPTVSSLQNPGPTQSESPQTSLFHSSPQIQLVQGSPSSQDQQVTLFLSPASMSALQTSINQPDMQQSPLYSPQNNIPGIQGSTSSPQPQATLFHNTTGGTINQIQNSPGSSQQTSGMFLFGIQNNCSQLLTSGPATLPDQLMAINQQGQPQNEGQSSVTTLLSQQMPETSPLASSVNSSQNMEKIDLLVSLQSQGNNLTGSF
UniProt P13864: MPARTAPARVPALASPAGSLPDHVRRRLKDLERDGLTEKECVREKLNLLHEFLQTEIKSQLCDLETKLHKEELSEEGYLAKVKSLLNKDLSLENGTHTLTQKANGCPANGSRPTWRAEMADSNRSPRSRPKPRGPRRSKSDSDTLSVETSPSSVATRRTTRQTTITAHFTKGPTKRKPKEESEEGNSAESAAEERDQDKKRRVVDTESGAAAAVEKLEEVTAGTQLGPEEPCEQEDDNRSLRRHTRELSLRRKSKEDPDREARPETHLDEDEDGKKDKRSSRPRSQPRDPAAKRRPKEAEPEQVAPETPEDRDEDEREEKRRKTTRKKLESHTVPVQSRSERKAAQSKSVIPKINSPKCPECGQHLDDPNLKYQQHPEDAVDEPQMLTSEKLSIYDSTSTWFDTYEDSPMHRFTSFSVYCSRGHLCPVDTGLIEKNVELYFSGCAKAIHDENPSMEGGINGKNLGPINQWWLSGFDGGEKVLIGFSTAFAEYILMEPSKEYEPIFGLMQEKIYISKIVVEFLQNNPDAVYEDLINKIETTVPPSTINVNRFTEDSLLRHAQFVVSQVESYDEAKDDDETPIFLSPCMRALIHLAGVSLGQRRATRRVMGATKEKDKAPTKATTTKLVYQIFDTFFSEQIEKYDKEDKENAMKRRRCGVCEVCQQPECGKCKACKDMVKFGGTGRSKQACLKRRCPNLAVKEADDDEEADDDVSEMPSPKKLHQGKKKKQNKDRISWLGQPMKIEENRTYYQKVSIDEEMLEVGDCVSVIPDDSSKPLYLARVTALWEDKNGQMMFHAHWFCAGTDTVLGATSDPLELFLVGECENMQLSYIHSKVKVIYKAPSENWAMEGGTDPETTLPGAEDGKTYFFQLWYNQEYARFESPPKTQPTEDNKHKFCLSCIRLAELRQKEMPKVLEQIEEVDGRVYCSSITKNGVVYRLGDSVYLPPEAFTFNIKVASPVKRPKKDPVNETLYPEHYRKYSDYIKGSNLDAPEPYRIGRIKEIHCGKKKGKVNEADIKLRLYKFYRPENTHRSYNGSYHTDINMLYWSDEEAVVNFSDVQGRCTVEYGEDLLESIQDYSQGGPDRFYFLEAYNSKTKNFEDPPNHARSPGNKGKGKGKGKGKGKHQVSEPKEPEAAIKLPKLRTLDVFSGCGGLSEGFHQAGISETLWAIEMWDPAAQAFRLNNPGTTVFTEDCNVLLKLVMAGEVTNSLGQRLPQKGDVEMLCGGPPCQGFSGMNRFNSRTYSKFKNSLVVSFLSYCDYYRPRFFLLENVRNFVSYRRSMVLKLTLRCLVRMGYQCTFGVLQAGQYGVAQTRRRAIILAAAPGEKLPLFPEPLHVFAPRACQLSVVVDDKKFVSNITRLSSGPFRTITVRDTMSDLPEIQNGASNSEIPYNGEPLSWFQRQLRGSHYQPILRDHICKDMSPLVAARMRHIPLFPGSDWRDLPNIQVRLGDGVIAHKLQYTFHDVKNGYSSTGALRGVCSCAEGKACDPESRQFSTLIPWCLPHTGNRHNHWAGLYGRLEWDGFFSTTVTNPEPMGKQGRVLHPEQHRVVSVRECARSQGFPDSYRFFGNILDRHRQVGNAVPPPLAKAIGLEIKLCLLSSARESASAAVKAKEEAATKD

This test concerns the target Tonicity-responsive enhancer-binding protein (TonEBP) (mouse (endogenous in 3T3-L1)) (UniProt Q9WV30). The test is described as follows: co-IP; total lysates of 3T3-L1 adipocytes in RIPA buffer; antibody overnight at 4 °C, protein A/G agarose beads 2 h, three washes with RIPA buffer; immunoblot with anti-DNMT1 and anti-TonEBP. (A western blot detects proteins with antibodies after separation by electrophoresis.)

These are yes or no findings as the source states them, for the method shown. Binding seen in cells or lysates may run through a third protein. Some binding calls cover weakened binding; strength is not graded here.

On to “DNMT1 DNA methylase (from UniProt P13864 1-1620) (enzyme)”, for which the binding entry was “binds”.
